Measurements taken from patent publication US20120197004A1, “NOVEL ANTI-MICROBIAL PEPTIDOMIMETIC COMPOUNDS AND METHODS TO CALCULATE ANTI-MICROBIAL ACTIVITY” (priority 2006, published 2012).
Part of at least one peptide drawing is inferred or uncertain, most often the ends. Where a SMILES comes first, the peptide text is derived from it. [ ]: non-standard residue; d: D form. ξ: configuration not given here. ξTic = O=C(O)C1Cc2ccccc2CN1; ξOic = O=C(O)C1CC2CCCCC2N1

Tested on: mouse cutaneous injury
Assay: Mouse skin wound healing model
Type: in vivo, CD-1 derived male mice
Conditions: topical once daily for 10 days; test substances 100 μg/mouse, CGS-21680 10 μg/mouse
Method: In-vivo assays: Selected compounds were evaluated in an in-vivo mouse skin wound healing model by MDS Pharma Services using the following protocol. Groups of CD-1 derived male mice (n=5) weighting 24±2 g were used. Under hexobarbitol (90 mg/kg, IP) anesthesia, the shoulder and back region of each animal was shaved. A sharp punch (ID 12 mm) was applied to remove the skin including panniculus carnosus and adherent tissues. […] The percent closure of the wound (%) was calculated, and wound half-closure time (CT50) was analyzed by linear regression using Graph-Prism (Graph Software USA). One-way ANOVA followed by Dunnett's test was applied for comparison between the treated and its corresponding vehicle groups at each measurement time point. Differences are considered statistically significant at P<0.05.^41

## CC(=O)NCC(=O)N[C@@H](Cc1ccccc1)C(=O)N1Cc2ccccc2CC1C(=O)N1C(C(=O)NCC(=O)N[C@@H](CCCCN)C(=O)N2Cc3ccccc3CC2C(=O)N2C(C(=O)NCC(=O)N[C@@H](Cc3ccccc3)C(=O)N3Cc4ccccc4CC3C(=O)N3C(C(=O)NCC(=O)N[C@@H](CCCCN)C(=O)N4Cc5ccccc5CC4C(=O)N[C@@H](CCCCN)C(=O)N[C@@H](CCCCN)C(=O)N[C@@H](CCCCN)C(=O)N[C@@H](CCCCN)C(N)=O)CC4CCCCC43)CC3CCCCC32)CC2CCCCC21 (stereo partly drawn) [FKAB-1G, Ac-GF-Tic-Oic-GK-Tic-Oic-GF-Tic-Oic-GK-Tic-KKKK-CONH2] (Ac-GF[ξTic][ξOic]GK[ξTic][ξOic]GF[ξTic][ξOic]GK[ξTic]KKKK-NH2)
  CT50 (wound half-closure time): 6.1 days
  wound closure Day 3: 36.3%
  wound closure Day 5: 51.5%
  wound closure Day 7: 63.3%
  wound closure Day 9: 69.8%
  wound closure Day 11: 77.5%
